Reference: PubChem BioAssay AID485314 (National Center for Advancing Translational Sciences (NCATS), 2010)
Where “and” joins values, the source holds several entries; their conditions need not be identical. Equal entries are not always repeated. Out of some 340,000 compounds screened, about 4,500 (1.3%) were called active. The inconclusive results got no clear call from the source; some entries with a clear call stand among them for comparison. Calls follow the shape of the dose curve; as a rule, active = well fitted inhibition curve with a large enough effect; inconclusive = small, poorly fitted or top-dose-only effect, or another doubt; inactive = no such curve, though single readings can be large or run the other way. A potency beside an inconclusive call is a rough fit, not a confirmed value.

The compounds below were run against DNA polymerase beta (Homo sapiens) (UniProt P06746) (assay: qHTS Assay for Inhibitors of DNA Polymerase Beta). Conditions: Pol beta primer extension/strand displacement, fluorescence kinetic; activity change, negative = inhibition: at 114 µM (top of the series).
In short: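 Homogeneous kinetic assay of primer extension and strand displacement by 10 nM Pol beta, preincubated 15 min at room temperature with compound before 50 nM substrate (final) was added. Read at 0 and 10 min; four-parameter Hill fit.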
% is scaled to controls: 0 for no effect and ±100 for the full control effect; potency is read from the fitted curve at half-maximal effect.

SMILES | activity change, negative = inhibition | Potency
COc1ccc(-c2cc(C(=O)Nc3ccc(S(=O)(=O)Nc4onc(C)c4C)cc3)c3ccccc3n2)cc1OC | inactive: 1.09% | 
COC(=O)c1ccc(NC(=O)NCCn2nnc3cc(S(=O)(=O)N(C)C)ccc32)cc1 | inactive: 0.303% | 
COc1ccc(C(C(=O)NC(C)(C)C)N(C(=O)CNC(=O)c2cccs2)c2cccnc2)cc1OC (stereo unspecified) | inactive: 1.39% | 
COc1ccc(Cl)cc1NC(=O)C1Cc2ccccc2CN1S(C)(=O)=O (stereo unspecified) |  | inconclusive: 50.1 µM [inhibitor, partial curve, poor fit]
O=C(CCS(=O)(=O)c1ccc(Br)cc1)NC1CCCCCC1 | inconclusive: -98.4% [inhibitor] | 
Cc1cc(C(F)(F)F)c2c(n1)sc1c(O)cc(=O)[nH]c12 | inactive: -9.66% | 
CC(C)C(C)(C#N)NC(=O)CSc1nc2scc(-c3ccco3)c2c(=O)n1-c1ccccc1 (stereo unspecified) |  | active: 28.2 µM
CC(=O)Nc1ccc(NC(=O)CSc2nc3ccccc3nc2N2CCC(C)CC2)cc1 |  | inconclusive: 7.08 µM [inhibitor, full curve, poor fit] and inconclusive: 31.6 µM [inhibitor, single point]
COc1ccc(OC(=O)c2nc(SCc3ccc(F)cc3)ncc2Cl)cc1 |  | inconclusive: 89.1 µM [inhibitor, single point]
Cc1nc2ccc([N+](=O)[O-])cc2c(=O)n1Cc1ccc(Br)cc1 | inactive: 17% | 
COC(=O)C(/C=N/OCc1ccc([N+](=O)[O-])cc1)NC(=O)c1cccc(Cl)c1 (stereo unspecified) |  | inconclusive: 89.1 µM [inhibitor, single point]
O=C(c1ccccc1)c1nn(-c2cccc(Cl)c2)ccc1=O |  | inconclusive: 6.31 µM [inhibitor, full curve, poor fit]
O=C(Cc1ccc(S(=O)(=O)N2CCCC2)s1)N1CCOCC1 |  | active: 44.7 µM
CN(C)c1cc[n+](/C(C(=S)Nc2ccc(SC(F)F)cc2)=C(/[O-])c2ccccc2)cc1 |  | inconclusive: 63.1 µM [inhibitor, single point]
O=C(Cn1c(-c2cccs2)cc2cc(Cl)ccc21)N1CCN(c2ccccc2F)CC1 |  | inconclusive: 89.1 µM [inhibitor, single point]
CCCCS(=O)(=O)/C=C\C1C2C=CC(C2)C1S(=O)(=O)CCCC (stereo unspecified) | inactive: -20.3% | 
O=C(N/N=C/c1cc(Br)c(O)c(Br)c1O)c1ccc2c(c1)OCCO2 |  | active: 39.8 µM
N=C1c2ccccc2CN1c1ccc(S(=O)(=O)N2CCCCC2)cc1 |  | inconclusive: 0.631 µM [inhibitor, full curve, poor fit]
CCC(=O)N(Cc1cc(=O)[nH]c2ccccc12)c1ccc(OC)cc1 | inactive: 3.11% | 
O=C(NC1CCCc2ccccc21)c1cccc(S(=O)(=O)N2CCN(c3ccccc3)CC2)c1 (stereo unspecified) |  | inconclusive: 89.1 µM [inhibitor, single point]
COc1ccc(F)cc1S(=O)(=O)Nc1cccc(-c2ccc(N3CCCCCC3)nn2)c1 |  | inconclusive: 70.8 µM [inhibitor, single point]
COc1ccc(S(=O)(=O)N2CCN(Cc3cc(OC)c(OC)c(OC)c3)CC2)cc1 | inactive: -2.66% | 
COc1cc(C(CCN2CCCCC2)c2c(OC)cc(OC)c3c(-c4ccccc4)cc(=O)oc23)cc(OC)c1OC (stereo unspecified) |  | inconclusive: 89.1 µM [inhibitor, single point]
O=C(O)Cc1ccc(NC(=O)Nc2cccc3ccccc23)cc1 |  | inconclusive: 8.91 µM [inhibitor, partial curve, poor fit]

SMILES | activity change, negative = inhibition | Potency
C=CCNC(=O)CSc1nc2sccc2c(=O)n1-c1ccccc1 |  | inconclusive: 39.8 µM [inhibitor, partial curve, poor fit]
CCC1CCCCN1CC(=O)Nc1cc(C)c2c(=O)oc3ccccc3c2n1 (stereo unspecified) |  | inconclusive: 35.5 µM [inhibitor, partial curve]
O=C1N=C(N2CCN(c3ccccc3)CC2)S/C1=C\c1cn[nH]c1-c1ccccc1 | inactive: 14.4% | 
O=c1cc(O)c(-c2ccc(Cl)cc2)c(Cl)[nH]1 | inconclusive: -76.5% [inhibitor] | 
COc1ccc(-c2c(C)nn(-c3ccccc3)c2N)cc1 |  | inconclusive: 0.1 µM [inhibitor, full curve, poor fit]
CCOC(=O)Cc1cc(=O)n2[nH]c(C)c(-c3ccccc3)c2n1 |  | inconclusive: 5.62 µM [inhibitor, full curve]
Cn1cnnc1SCC(=O)NCCc1ccccc1 |  | inconclusive: 0.447 µM [inhibitor, full curve]
Clc1ccc2c(N/N=C/c3ccccc3Br)ccnc2c1 |  | active: 22.4 µM
O=C(Cc1ccc(S(=O)(=O)N2CCOCC2)s1)NCC1CCCCC1 |  | inconclusive: 20 µM [inhibitor, partial curve]
CCCN(CC(=O)Nc1ccccc1C)C(=O)Cc1coc2cc(C)ccc12 |  | active: 39.8 µM
CC(C)(C)c1ccc(Oc2nc3ccccn3c(=O)c2/C=C(\C#N)c2nc3ccccc3s2)cc1 |  | inconclusive: 79.4 µM [inhibitor, single point]
O=C1CCC(C(=O)N2CCC(CO)(Cc3ccc(Cl)cc3)CC2)=NN1 |  | inconclusive: 39.8 µM [inhibitor, partial curve]
COc1ccc2c(c1)CCc1sc(NC(=O)c3ccc(Br)cc3)nc1-2 | inactive: -18.3% | 
CSCCC(=O)Nc1nc(-c2ccccn2)cs1 |  | inconclusive: 44.7 µM [inhibitor, partial curve]
Cc1ccc(NC(=O)CN2C(=O)S/C(=C/c3ccc(-c4cc(C(=O)O)ccc4C)o3)C2=O)cc1C |  | active: 7.08 µM
Cc1cc(C(=O)N/N=C/c2cc(Br)c(Br)o2)n[nH]1 |  | active: 44.7 µM
CCCCOc1ccc(C2C(C(=O)c3ccc(C)o3)=C(O)C(=O)N2Cc2ccco2)cc1 (stereo unspecified) |  | inconclusive: 39.8 µM [inhibitor, single point]
CCN1/C(=C/c2sc(-c3ccccc3C)c[n+]2C)Sc2ccccc21 |  | inconclusive: 79.4 µM [inhibitor, single point]
CCc1c(C)sc(NC(=O)CC#N)c1C#N |  | inconclusive: 6.31 µM [inhibitor, partial curve, poor fit]
CC(=O)Nc1cccc(Nc2nc3ccccc3n3c(C)nnc23)c1 | inactive: -0.218% | 
CCOC(=O)C1CCCN(CCC(=O)Nc2c(C(=O)OC)[nH]c3cc(OC)ccc23)C1 (stereo unspecified) |  | inconclusive: 89.1 µM [inhibitor, single point]
O=c1cc(-c2c(O)c3ccccc3n(Cc3ccccc3)c2=O)[nH][nH]1 |  | active: 8.91 µM
Cc1ccc(-c2nnn3c2nc(NCCc2ccc(S(N)(=O)=O)cc2)c2ccccc23)cc1 |  | active: 5.01 µM
O=C(Cc1ccccc1)Nc1ccc(NC(=S)NC(=O)c2ccccc2)cc1 |  | inconclusive: 0.158 µM [inhibitor, full curve, poor fit]

SMILES | activity change, negative = inhibition | Potency
COc1cccc(-n2nnnc2S(C)(=O)=O)c1 | inactive: 7.68% | 
COc1ccccc1C(=O)OCc1cc(=O)n2nc(-c3cccs3)sc2n1 |  | active: 17.8 µM
S=C(N/N=C/c1ccco1)NC1CC2CCC1C2 (stereo unspecified) |  | inconclusive: 15.8 µM [inhibitor, full curve, poor fit]
CCOC(=O)c1c(NC(=O)CCCOc2ccc(C(C)(C)C)cc2)sc2c1CCCC2 | inactive: 12.1% | 
COc1ccc(OC)c(NC(=O)c2cnc(N3CCCCC3)c3ccccc23)c1 |  | inconclusive: 4.47 µM [inhibitor, full curve]
O=C1CSC(c2cccnc2)N1c1ccccc1 (stereo unspecified) | inactive: -1.68% | 
O=C(Nc1ccc(Nc2ccccc2)cc1)c1ccc(F)cc1 |  | inconclusive: 0.158 µM [inhibitor, full curve, poor fit]
COC(=O)c1sc(-c2ccccc2)cc1NC(=O)Nc1ccc(Cl)cc1 | inactive: 27.9% | 
Clc1ccc2c(c1)C=Nc1c(NCc3ccccc3)ncnc1O2 |  | inconclusive: 39.8 µM [inhibitor, partial curve, poor fit]
CCOc1cc(/C=C2\C(=O)NN(c3ccccc3)C2=O)cc([N+](=O)[O-])c1O |  | active: 20 µM
O=C(NCCc1ccc(Cl)cc1)c1ccc2c(c1)N(Cc1ccc(F)cc1)C(=O)CS2 | inactive: 24.1% | 
O=C(c1ccc2snnc2c1)N1CCCC1 |  | inconclusive: 89.1 µM [inhibitor, single point]
CCCn1c(SCC(O)c2ccccc2)nc2ccccc21 (stereo unspecified) | inactive: -2.62% | 
N#Cc1c(N2CCCCC2)nc(N)c2c(N)nc3c(c12)CC(CCl)O3 (stereo unspecified) |  | inconclusive: 100 µM [inhibitor, single point]
Cc1cc(OCCn2c(CCNC(=O)C3CCCCC3)nc3ccccc32)ccc1Cl | inactive: 5.91% | 
CN(c1ccccc1)S(=O)(=O)c1ccc2[nH]c(=O)oc2c1 |  | active: 50.1 µM
CCCCCNc1nc(N2CCCC2)c2c(c1C#N)CCN(C)C2 |  | inconclusive: 89.1 µM [inhibitor, single point]
Cc1cc(NC(=O)CSCC(=O)N(c2ccc(F)cc2)C(C(=O)NC2CCCCC2)c2ccc(O)c(O)c2)no1 (stereo unspecified) |  | active: 20 µM
Cc1cc2ncn(CC(C)C)c2cc1C |  | inconclusive: 100 µM [inhibitor, single point]
O=C(CSc1cccc2cccnc12)OCC(=O)c1ccc(Br)cc1 |  | inconclusive: 89.1 µM [inhibitor, single point]
CCS(=O)(=O)c1c([N+](=O)[O-])ncn1C | inactive: 1.29% | 
COc1ccccc1N1CCN(C(=O)Cc2cccs2)CC1 |  | inconclusive: 17.8 µM [inhibitor, single point]
O=C(N=Nc1c(O)[nH]c2ccccc12)c1cc(-c2ccc(F)cc2)n[nH]1 |  | inconclusive: 10 µM [inhibitor, full curve]

Quoted at random: 3 entries already listed, in no set order.
SMILES | activity change, negative = inhibition | Potency
COc1ccc(S(=O)(=O)N2CCN(Cc3cc(OC)c(OC)c(OC)c3)CC2)cc1 | inactive: -2.66% | 
Clc1ccc2c(c1)C=Nc1c(NCc3ccccc3)ncnc1O2 |  | inconclusive: 39.8 µM [inhibitor, partial curve, poor fit]
COc1ccccc1N1CCN(C(=O)Cc2cccs2)CC1 |  | inconclusive: 17.8 µM [inhibitor, single point]
